The supplement of paper PMC12067093, “Discovery and optimisation of a covalent ligand for TRIM25 and its application to targeted protein ubiquitination” (Chemical Science, 2025)
The other results are listed elsewhere or left out.

Compound: CC1Cc2ccccc2N1C(=O)C1CCCN(C1)C(=O)CCl (mixture of isomers) [TRIM25 ligand 11 (diastereomer mixture)]
Experiment: probe-labelled cysteine peptide fold change vs DMSO (competition) (log2 fold change); higher = less target engagement (more negative = stronger competition)
Conditions: THP-1, incubation time: 4 h
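Note: competitive chemoproteomic profiling in live THP-1 cells with an iodoacetamide desthiobiotin (IA-DTB) probe, comparing probe-labelled peptide intensities in compound-treated cells against DMSO-treated controls.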

| Target | probe-labelled cysteine peptide fold change (10 µM) | probe-labelled cysteine peptide fold change (50 µM) |
| --- | --- | --- |
| RAD54L2_Q9Y4B4_618_AFCVCCK (UniProt Q9Y4B4) | -0.00704 | 0.0823 |
| RBM28_Q9NW13_71_EITTFEGCK (UniProt Q9NW13) | -0.0134 | 0.0154 |
| RBBP6_Q7Z6E9_161_KPLGPPPPSYTCFR (UniProt Q7Z6E9) | -0.0221 | 0.059 |
| RANBP2_P49792_707_KAEDIENDALSPEEQEECK (UniProt P49792) | 0.147 | 0.111 |
| RARS2_Q5T160_489_LHSLEETFGCGYLNDFNTACLQEPQSVSILQHLLR (UniProt Q5T160) | 0.382 | 0.0781 |
| RCHY1_Q96PM5_148_QNCPICLEDIHTSR (UniProt Q96PM5) | 0.451 | 0.316 |
| RANBP2_P49792_1424_EGHWDCSICLVR (UniProt P49792) | 0.109 | 0.0853 |
| RCC2_Q9P258_337_DVACGANHTLVLDSQKR (UniProt Q9P258) | -0.0188 | 0.0275 |
| RCC2_Q9P258_209_LIEGLSHEVIVSAACGR (UniProt Q9P258) | -0.000959 | 0.0564 |
| RBM15B_Q8NDT2_732_NSCFPTSMHILEGDQGVISSLLK (UniProt Q8NDT2) | 0.297 | 0.0112 |
| RBMS1_P29558_194_CEAVIGHFNGK (UniProt P29558) | -0.0517 | 0.123 |
| RASA2_Q15283_354_SPDVQPISASAAYILSEICR (UniProt Q15283) | -0.127 | 0.22 |
| RCC1L_Q96I51_401_CGLSHFAALTNK (UniProt Q96I51) | 0.0578 | 0.0297 |
| RBFA_Q8N0V3_136_VSLTPDFSACR (UniProt Q8N0V3) | -0.194 | 0.0213 |
| RBKS_Q9H477_151_VMVCQLEITPATSLEALTMAR (UniProt Q9H477) | -0.00827 | -0.305 |
| RB1_P06400_278_IIEVLCK (UniProt P06400) | -0.0615 | 0.0476 |
| RBL2_Q08999_635_ADEICIAGSPLTPR (UniProt Q08999) | -0.151 | -0.271 |
| RCHY1_Q96PM5_172_TCYEEMLK (UniProt Q96PM5) | -0.0376 | -0.0114 |
| RCC2_Q9P258_305_IEYDCELVPR (UniProt Q9P258) | 0.0696 | 0.115 |

| Target | probe-labelled cysteine peptide fold change (10 µM) | probe-labelled cysteine peptide fold change (50 µM) |
| --- | --- | --- |
| RANBP6_O60518_118_LCDIFAVLAR (UniProt O60518) | 0.152 | 0.0242 |
| RANBP2_P49792_1549_KEGQWDCSSCLVR (UniProt P49792) | -0.0222 | 0.139 |
| RB1CC1_Q8TDY2_603_VPLLCDFEPLHQHVLALHNLVK (UniProt Q8TDY2) | -0.121 | 0.00852 |
| RBM39_Q14498_303_GYGFITFSDSECAK (UniProt Q14498) | -0.0687 | 0.0112 |
| RAP1B_P61224_51_QVEVDAQQCMLEILDTAGTEQFTAMR (UniProt P61224) | -0.00531 | -0.107 |
| RAE1_P78406_106_VFTASCDK (UniProt P78406) | -0.0316 | -0.0296 |
| RBM28_Q9NW13_392_CLLAASPENEAGGLK (UniProt Q9NW13) | -0.0103 | 0.0341 |
| RC3H1_Q5TC82_1049_ELSMENQCSLDMK (UniProt Q5TC82) | -0.249 | -0.555 |
| RASA1_P20936_1002_DLAALHEICVAHSDELR (UniProt P20936) | -0.134 | -0.0496 |
| RASAL2_Q9UJF2_333_EELACALVHILQSTGR (UniProt Q9UJF2) | 0.338 | 0.305 |
| RBBP7_Q16576_97_VHIPNDDAQFDASHCDSDKGEFGGFGSVTGK (UniProt Q16576) | 0.0189 | 0.134 |
| RBCK1_Q9BYM8_323_NSQEAEVSCPFIDNTYSCSGK (UniProt Q9BYM8) | -0.0569 | 0.0193 |
| RAPGEF1_Q13905_958_QTSEGLAEYCTLIDSSSSFR (UniProt Q13905) | -0.129 | -0.121 |
| RCC1_P18754_308_SWVGFSGGQHHTVCMDSEGK (UniProt P18754) | -0.101 | -0.0751 |
| RAI1_Q7Z5J4_1516_MEELGLASQPPEGRPCQPQTR (UniProt Q7Z5J4) | -0.141 | -0.248 |
| RANBP3_Q9H6Z4_228_SPSEAADEVCALEEK (UniProt Q9H6Z4) | 0.276 | -0.174 |
| RB1CC1_Q8TDY2_839_CTAVEIR (UniProt Q8TDY2) | 0.033 | -0.123 |
| RAP1A_P62834_141_QWCNCAFLESSAK (UniProt P62834) | -0.0388 | -0.00549 |
| RBM22_Q9NW64_84_NVCQTCLLDLEYGLPIQVR (UniProt Q9NW64) | -0.548 | 0.168 |
